Measured values from article PMC5996148.
“And” between values parts separate entries of the source, which are not always exact repeats. Equal values may be shown once. This is one part of the list.

How the values were obtained:
Experiment in all cases: protein microarray (ProtoArray v5.0), streptavidin-Alexa Fluor 647
Conditions in all cases: 3'-biotin; 20 mM Tris (pH 7.5), 5 mM MgCl2, 100 mM KCl, 0.1% Tween-20, A/T-rich and random oligonucleotide blockers; temperature not stated; high values mean tight binding
TNFAIP8 (human) = system: TNFAIP8 (human)
TNFRSF11B (human) = system: TNFRSF11B (human)
TNFRSF19 (human) = system: TNFRSF19 (human)
TNFSF15 (human) = system: TNFSF15 (human)
TNFSF18 (human) = system: TNFSF18 (human)
TNIP1 (human) = system: TNIP1 (human)
TNIP2 (human) = system: TNIP2 (human)
TNNC1 (human) = system: TNNC1 (human)
TNXB (human) = system: TNXB (human)
TOM1 (human) = system: TOM1 (human)
[1] = system: TOM1-like protein 2 (human)
TPD52L1 (human) = system: TPD52L1 (human)
TPI1 (human) = system: TPI1 (human)
TPK1 (human) = system: TPK1 (human)
TPM1 (human) = system: TPM1 (human)
TPM2 (human) = system: TPM2 (human)
TPM3 (human) = system: TPM3 (human)
TPM4 (human) = system: TPM4 (human)
TPMT (human) = system: TPMT (human)
TPO (human) = system: TPO (human)

For “GGGAGGCTGAGGCAGG [G4-1 biotinylated (PQS2)]”, the binding signal (TNFAIP8 (human)) was -0.354 z-score, the binding signal (TNFRSF11B (human)) was -0.299 z-score and the binding signal (TNFRSF19 (human)) was -0.315 z-score. The binding signal (TNFSF15 (human)) was -0.316 z-score, the binding signal (TNFSF18 (human)) was -0.302 z-score and the binding signal (TNIP1 (human)) was -0.336 z-score. For the same sequence, the binding signal (TNIP2 (human)) was -0.308 z-score, the binding signal (TNNC1 (human)) was -0.279 z-score and the binding signal (TNXB (human)) was -0.326 z-score. For the same sequence, the binding signal (TOM1 (human)) was -0.298 z-score, the binding signal [1] was -0.366 z-score and the binding signal (TPD52L1 (human)) was -0.265 z-score. It also gave a binding signal (TPI1 (human)) of -0.308 z-score, a binding signal (TPK1 (human)) of -0.279 z-score and a binding signal (TPM1 (human)) of -0.334 z-score. The binding signal (TPM2 (human)) was -0.283 z-score, the binding signal (TPM3 (human)) was -0.356 z-score and -0.343 z-score and the binding signal (TPM4 (human)) was -0.343 z-score. It also gave a binding signal (TPMT (human)) of -0.305 z-score and a binding signal (TPO (human)) of -0.3 z-score.
